From PubChem BioAssay AID504834 (National Center for Advancing Translational Sciences (NCATS), 2011)
Among all 320,000 compounds or so, about 22,000 (6.9%) were called active. The inconclusive results got no clear call from the source; some entries with a clear call stand among them for comparison. The call rests on the fitted dose curve; in most records, active means well fitted inhibition curve with a large enough effect; inconclusive means small, poorly fitted or top-dose-only effect, or another doubt; inactive means no such curve, though single readings can be large or run the other way. Potencies of inconclusive entries are doubtful fits and often do not repeat.

Assay: Primary qHTS for delayed death inhibitors of the malarial parasite plastid, 96 hour incubation
Conditions: P. falciparum luciferase reporter growth; series mostly up to 28.7 µM; activity change, negative = inhibition: at the top concentration
In short: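 Erythrocytes infected with luciferase-expressing P. falciparum were dispensed at 2% hematocrit and 0.05% parasitemia (final), then incubated with compounds 96 hours at 37 C in 5% CO2. Luminescence after detection reagent addition reported growth.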
On the % scale 0 is the no-effect control and ±100 the full control effect; potency means the concentration at half of the fitted maximal effect.

| Structure (SMILES) | Potency | activity change, negative = inhibition |
| --- | --- | --- |
| CC1CCCC(C)N1c1nnc(NC(=O)c2cc(-c3ccc(Br)cc3)on2)s1 (configuration not stated) | inconclusive: 16.5 µM [inhibitor, single point] | – |
| Cc1ccc(NS(=O)(=O)c2ccc3c(c2)NC(=O)CO3)cc1C | active: 9.28 µM | – |
| O=C(O)CSCc1cn2cc(Cl)ccc2n1 | inconclusive: 8.28 µM [inhibitor, partial curve, poor fit] | – |
| O=C(COc1ccccc1Cl)Nc1ccc2c(c1)C(=O)NC2=O | inconclusive: 13.1 µM [inhibitor, single point] | – |
| COc1ccc(C(=O)NCCS(=O)(=O)N2CCc3ccccc3C2)cc1 | – | inactive: 18.1% |
| CCCCCn1c(N2CCN(c3cccc(Cl)c3)CC2)nc2c1c(=O)[nH]c(=O)n2C | active: 5.86 µM | – |
| CC(C)c1ccc(OCC(=O)Nc2ccncc2)cc1 | – | inactive: 29.3% |
| Cc1nc(CNS(=O)(=O)c2cccc(F)c2)cs1 | inconclusive: 18.5 µM [inhibitor, single point] | – |
| COC(=O)c1ccc(OCC(O)CN2CCOCC2)cc1 (configuration not stated) | inconclusive: 4.15 µM [inhibitor, single point] | – |
| COC(=O)C1=C(O)C(C(=O)OC)C(c2ccc(C)cc2)C(C#N)(C#N)C1c1ccc(C)cc1 (configuration not stated) | inconclusive: 10.4 µM [inhibitor, single point] | – |
| O=[N+]([O-])c1cccc(/C=C2\CCC(/C=N/Nc3ccc4ccccc4n3)=C2N2CCOCC2)c1 | active: 0.415 µM | – |
| Cc1ccc2[nH]c(C)c(CCNC(=O)C3CCCCC3C(=O)OCC(F)(F)F)c2c1 (configuration not stated) | inconclusive: 4.15 µM [inhibitor, single point] | – |
| COC(=O)c1cc2c(ccn2-c2ccc(F)cc2)n1CC(=O)N1CCN(C(=O)c2ccco2)CC1 | – | inactive: 11.9% |
| C=CCn1c(=O)c(C(C)=O)cn(N(C)c2ncc(C(F)(F)F)cc2Cl)c1=O | inconclusive: 18.5 µM [inhibitor, single point] | – |
| COc1cc(C2CC(=O)Oc3c(C(CCN4CCN(c5ccccc5)CC4)c4ccc(N(C)C)cc4)c(OC)cc(OC)c32)cc(OC)c1OC (configuration not stated) | active: 4.15 µM | – |
| CCC(C)NC(=O)Cn1c(-c2ccccc2)cc(C(C)=O)c1C (configuration not stated) | inconclusive: 20.8 µM [inhibitor, single point] | – |
| CCOc1ccccc1N1CCN(C(=O)c2ccccc2SCC(=O)N2CCCC2)CC1 | active: 13.1 µM | – |
| S=C(Nc1ccccc1Cl)N(Cc1cccnc1)Cc1ccco1 | inconclusive: 18.5 µM [inhibitor, single point] | – |
| O=C(O)C1C2C=CC(CC2)C1C(=O)O (configuration not stated) | inconclusive: 14.7 µM [inhibitor, single point] | – |
| CCCCNC(=S)Nc1ccc(SC(F)F)cc1 | inconclusive: 18.5 µM [inhibitor, single point] | – |
| CCSc1cc(N2CCCC2)nc(-c2ccccc2)n1 | inconclusive: 11.7 µM [inhibitor, single point] | – |
| Cc1ccc(NC(=O)C(=O)C2C(=O)Nc3ccccc32)cc1 (configuration not stated) | – | inactive: 52.2% |
| NC(=O)CN(Cc1ccccc1)S(=O)(=O)c1ccc2c(c1)OCCO2 | – | inactive: -16.7% |
| Cc1nc2cc(-c3ccccc3)nn2c(N)c1-c1ccccc1 | – | inactive: 399% |

| Structure (SMILES) | Potency | activity change, negative = inhibition |
| --- | --- | --- |
| O=C(CN1CCOCC1)NNc1nc(-c2ccccc2)c2cc(Br)ccc2n1 | inconclusive: 10.4 µM [inhibitor, single point] | – |
| CN(C)C(=O)CSc1nnc([C@H](Cc2ccccc2)NC(=O)OC(C)(C)C)o1 | inconclusive: 0.415 µM [inhibitor, full curve, poor fit] | – |
| CCOc1ccc(-n2c(SC)nc3c(c2=O)SCC3)cc1 | inconclusive: 18.5 µM [inhibitor, single point] | – |
| Cc1cc(NC(=O)CSc2nnc3c(C)cc4cc5c(cc4n23)OCO5)no1 | – | inactive: -18.7% |
| CCn1ccnc1CN(C)C(=O)CCc1nnc(CCCc2ccccc2)o1 | – | inactive: -17.2% |
| Cc1c(N=C2Nc3cccc4cccc2c34)c(=O)n(-c2ccccc2)n1C | inconclusive: 11.7 µM [inhibitor, single point] | – |
| CCN(CC)CCn1c2c(c(SCC(=O)Nc3nc4ccc(C)cc4s3)nc1=O)CCC2 | inconclusive: 0.465 µM [inhibitor, full curve] | – |
| Cc1ccc(CNC(=O)CN(c2ccc(Cl)cc2)S(C)(=O)=O)cc1 | inconclusive: 18.5 µM [inhibitor, single point] | – |
| Cc1ccc(OCC(=O)Nc2nnc(S(=O)(=O)N3CCCCCC3)s2)cc1 | inconclusive: 4.15 µM [inhibitor, partial curve] | – |
| O=C(NCc1ccc(F)cc1)C1(c2cccs2)CCOCC1 | inconclusive: 18.5 µM [inhibitor, single point] | – |
| COc1ccccc1CN1CC(C(=O)N2CCCCO2)CCC1=O (configuration not stated) | – | inactive: 36.3% |
| CN(CC(=O)Nc1ccc(Cl)c(C(F)(F)F)c1)C(=O)C1CCC1 | inconclusive: 0.329 µM [inhibitor, full curve] | – |
| CCn1c(/C=C2\C(=O)Nc3ccccc32)nc2ccccc2c1=O | inconclusive: 1.85 µM [inhibitor, full curve, poor fit] | – |
| O=C(CCCN1C(=O)/C(=C\c2ccco2)SC1=S)Nc1ccc(O)cc1C(=O)O | – | inactive: 2.14% |
| CCOc1cc(C(=S)N2CCCCC2)ccc1OCC(=O)NCc1ccccc1 | active: 3.7 µM | – |
| OCC1OC(n2cnc3ccccc32)CC1O (configuration not stated) | – | inactive: 2.13% |
| COc1ccc(OC)c(-c2nc3ccccc3nc2-c2ccccc2)c1 | inconclusive: 0.657 µM [inhibitor, partial curve, poor fit] | – |
| CCN(CC)C(=O)CSc1n[nH]c(=S)n1N | inconclusive: 3.7 µM [inhibitor, full curve] | – |
| Cn1cccc1CC(=O)NNC(=S)Nc1ccc(Cl)cc1Cl | inconclusive: 7.38 µM [inhibitor, partial curve, poor fit] | – |
| COc1ccc2nc(SCc3nc(N)nc(Nc4ccccc4)n3)[nH]c2c1 | – | inactive: 106% |
| CC(C)CCNC(=S)Nc1ccccc1F | inconclusive: 14.7 µM [inhibitor, single point] | – |
| COc1cccc(/C=N/NC(=O)CCCC(=O)NC2CCCCC2)c1 | inconclusive: 16.5 µM [inhibitor, single point] | – |

Reformatted: results already given.
Structure (SMILES) | Potency | activity change, negative = inhibition
COc1ccc2nc(SCc3nc(N)nc(Nc4ccccc4)n3)[nH]c2c1 | – | inactive: 106%
CC(C)CCNC(=S)Nc1ccccc1F | inconclusive: 14.7 µM [inhibitor, single point] | –
COc1cccc(/C=N/NC(=O)CCCC(=O)NC2CCCCC2)c1 | inconclusive: 16.5 µM [inhibitor, single point] | –
